Results deposited as PubChem BioAssay AID1671195 (Yale University, 2021).
Test: 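Regulators of LDL receptor activity judged by labelled LDL uptake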 (primary screen). Cell system: human Huh7 hepatoma cells. Reagent: siRNA pool against human genes, 18 nM. Time to read-out: about 2 to 2.5 days of knockdown, then 8 h LDL uptake. Conditions: DiI-labelled LDL at 30 µg/ml for 8 h, in lipoprotein-deficient serum medium. Detection: 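Per-cell DiI-LDL intensity by automated imaging; well means scaled to the plate median and given as a robust z-score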. Reading the numbers: robust z-score: higher = more LDL uptake after knockdown. Call rule: 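a gene counts as active if at least two replicate z-scores exceed ±2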.
The whole screen tested about 22,000 reagents; this is a random part of them. In the full data, about 1,510 (6.9%) got an active call. 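Active includes knockdowns raising or lowering LDL uptake; positive z-scores mean more uptake, negative mean less.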 The numbers tell different reagents against one gene apart.

gene | reagent | robust z-score, replicate 1 | robust z-score, replicate 2 | robust z-score, replicate 3 | activity call
LOC441851 (retired record) | 1 | -0.428 | -0.0775 | -0.242 | inactive
LEAP2 | 1 | -0.955 | 0.657 | 0.627 | inactive
CCDC73 | 1 | 0.332 | 0.131 | 0.0957 | inactive
CCDC122 | 1 | -0.0451 | 0.367 | -0.187 | inactive
WASL | 1 | -1.05 | 1.1 | -0.316 | inactive
IRX4 | 1 | -1.35 | -1.52 | -1.72 | inactive
LANCL1 | 1 | 0.469 | 0.198 | 1.16 | inactive
ARMC10 | 1 | -0.0166 | -0.0578 | -0.424 | inactive
OR5AR1 | 1 | 1.47 | 1.62 | 1.25 | inactive
ADCY9 | 1 | -0.419 | 0.103 | -0.369 | inactive
SFT2D1 | 1 | 0.0513 | 1.15 | 0.662 | inactive
ZNF267 | 1 | -0.18 | 0.191 | -0.0453 | inactive
DSG4 | 1 | 0.0427 | 0.184 | 0.193 | inactive
ZFP91 | 1 | -1.01 | -0.666 | -0.785 | inactive
ASCC1 | 1 | -1.17 | -1.6 | -0.922 | inactive
LOC441045 (retired record) | 1 | 0.417 | 0.0106 | 0.438 | inactive
DUSP6 | 1 | 1.66 | 2.77 | 2.98 | active
TPRG1 | 1 | -0.62 | 0.0763 | -0.193 | inactive
FBXO22 | 1 | 0.882 | 0.764 | 1.57 | inactive
ATXN7L3 | 1 | -1.61 | 0.0541 | -0.128 | inactive
ST6GAL1 | 1 | -0.0168 | 0.0805 | 0.034 | inactive
CCNH | 1 | -1.11 | -1.3 | -1.18 | inactive
WDR43 | 1 | 0.588 | 2.5 | 0.149 | inactive
LOC389116 (retired record) | 1 | -0.624 | -0.908 | -0.957 | inactive
LOC392164 (retired record) | 1 | 0.563 | -0.251 | -0.524 | inactive
PKDCC | 1 | 0.538 | 0.436 | 0.831 | inactive
LOC283816 (retired record) | 1 | -0.258 | 0.0441 | -0.138 | inactive
ZNF252P | 1 | 0.854 | 0.751 | 0.973 | inactive

Copied from the list.
ZNF252P, activity call → inactive
LEAP2, activity call: inactive
LOC389116 (retired record), robust z-score, replicate 2: -0.908
Under “robust z-score, replicate 1”, ST6GAL1 reads -0.0168
Result for LANCL1 in “robust z-score, replicate 2”: 0.198
ADCY9, robust z-score, replicate 2 = 0.103

The listing continues:
gene | reagent | robust z-score, replicate 1 | robust z-score, replicate 2 | robust z-score, replicate 3 | activity call
RBM5 | 1 | 0.978 | 0.803 | 0.215 | inactive
PEX39 | 1 | 0.525 | 0.378 | 0.692 | inactive
NPC1 | 1 | 1.63 | – | – | active
NPC1 | 2 | 0.321 | 0.457 | 0.141 | inactive
CPO | 1 | 0.616 | -0.0756 | 0.995 | inactive
LAMA2 | 1 | 0.0468 | 0.0407 | -0.266 | inactive
PITX3 | 1 | -0.946 | -0.968 | -0.36 | inactive
LOC390683 (retired record) | 1 | 1.26 | 1.4 | 0.921 | inactive
OR52E6 | 1 | 0.587 | 1.01 | 1.11 | inactive
LOC613206 | 1 | 1.18 | 0.858 | 1.14 | inactive
LOC401101 (retired record) | 1 | -0.0552 | -0.381 | -0.246 | inactive
EIF4E | 1 | -1.06 | -0.924 | -0.786 | inactive
CHUK | 1 | 0.31 | 0.142 | 1.95 | inactive
LOC401553 (retired record) | 1 | -0.718 | -0.884 | -0.429 | inactive
SSBP3 | 1 | 0.76 | 0.9 | 0.519 | inactive
ATP5MF | 1 | -1.3 | -0.907 | -0.714 | inactive
IL17B | 1 | 0.0154 | 0.64 | -1.19 | inactive
PFDN2 | 1 | -1.4 | -1.27 | -1.25 | inactive
LOC387872 (retired record) | 1 | 0.648 | -0.437 | -0.269 | inactive
ATOX1 | 1 | 0.523 | 0.928 | 0.478 | inactive
PCDHGB1 | 1 | 0.57 | 0.902 | 0.97 | inactive
CIMIP6 | 1 | -0.109 | 0.557 | -0.224 | inactive
FAM91A1 | 1 | 0.358 | 0.0318 | 0.928 | inactive
CELF2-AS2 | 1 | -1.31 | -0.927 | -0.947 | inactive
ACP3 | 1 | -0.0897 | -0.0575 | 0.356 | inactive
GABRA2 | 1 | -0.575 | -0.83 | -0.822 | inactive
PRSS23 | 1 | 1.33 | 1.21 | 1.81 | inactive
PFKP | 1 | -0.481 | 0.864 | -0.363 | inactive
EXOC6B | 1 | 0.287 | 0.464 | -0.138 | inactive
AIRE | 1 | -0.00116 | -0.0907 | 0.0264 | inactive
CNOT6 | 1 | 1.26 | 1.07 | 1.38 | inactive
PROM2 | 1 | -0.887 | -0.914 | -0.919 | inactive
POU5F2 | 1 | 0.796 | -0.277 | 1.19 | inactive
ZNF850 | 1 | 0.481 | 0.931 | 0.0813 | inactive
DIPK1A | 1 | 0.426 | 0.562 | 0.896 | inactive
KRT77 | 1 | -0.0212 | 0.178 | 0.082 | inactive
SNAPC2 | 1 | -1.86 | -1.82 | -1.42 | inactive
SEMA4A | 1 | -0.39 | 1.9 | 0.849 | inactive
CHAC2 | 1 | -0.445 | -0.203 | -0.414 | inactive
VPS11 | 1 | -0.217 | 0.0817 | 0.0702 | inactive
